Library screen at single concentrations

Mtb cholesterol medium: 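Whole-cell growth test on Mycobacterium tuberculosis, read after 4 days in a medium based on cholesterol and the lipid DPPC; the read-out is not stated. Compounds at 500 µM. The record gives no direction; compounds that gave an IC50 in retests scored well above the rest, so higher reads as more growth inhibition. Size under these conditions: about 18,000 compounds, about 900 of them at 50% or above in at least one test.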
Mtb glucose medium: 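Growth of Mycobacterium tuberculosis over 3 days (7H9 medium with glucose and tyloxapol); the read-out is not stated. Compounds at 500 µM. Higher reads as more growth inhibition (inferred: compounds with an IC50 in retests scored well above the rest). About 18,000 compounds were tested under these conditions; 7.9% (about 1,400) showed 50% or more at least once.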

The filed quantity is “Percent Effect” (%).
The controls that fix the scale are not given in the record; negative values are as filed.
This is an unselected part of the compounds tested.

{"smiles": "Cc1cc(=O)[nH]c2ccc(S(N)(=O)=O)cc12", "Mtb cholesterol medium": 3.872, "Mtb glucose medium": 2.764}
{"smiles": "CC(C)C(N)c1ncon1", "stereo": "centres undefined", "Mtb cholesterol medium": -8.935, "Mtb glucose medium": -0.2025}
{"smiles": "O=C1CN(C(=O)CSc2ncccc2Cl)CCN1", "Mtb cholesterol medium": -0.5653, "Mtb glucose medium": 2.889}
{"smiles": "CCOC(=O)c1cn[nH]c1C1CCNC1", "stereo": "centres undefined", "Mtb cholesterol medium": 12.9, "Mtb glucose medium": 16.09}
{"smiles": "Cc1cc(C)nc(NC(=O)C2CN(C)CCO2)c1", "stereo": "centres undefined", "Mtb cholesterol medium": 13.23, "Mtb glucose medium": 31.37}
{"smiles": "O=C(CCc1ccccc1)NCC1(O)CCOC1", "stereo": "centres undefined", "Mtb cholesterol medium": -14.43, "Mtb glucose medium": -7.221}
{"smiles": "CCc1ncc2c(n1)CNCC2", "Mtb cholesterol medium": -41.55, "Mtb glucose medium": -31.58}
{"smiles": "Cc1cc(CN)n(C)n1", "Mtb cholesterol medium": -7.403, "Mtb glucose medium": -10.14}
{"smiles": "CC(=O)N1CCN(c2ccc(CN)cc2)CC1", "Mtb cholesterol medium": 10.71, "Mtb glucose medium": 12.63}
{"smiles": "COc1ncc(C)cc1NC(=O)c1ccc(C)[nH]c1=O", "Mtb cholesterol medium": -6.007, "Mtb glucose medium": -11.35}
{"smiles": "CN(C)S(=O)(=O)CCCN1CCC(c2cc[nH]n2)CC1", "Mtb cholesterol medium": 8.713, "Mtb glucose medium": -4.509}
{"smiles": "c1cc2nncn2nc1NC1CCCC1", "Mtb cholesterol medium": -17.7, "Mtb glucose medium": -2.529}
{"smiles": "C[C@@H](CN(C)C)NC(=O)c1ccc(-n2ccnc2)cc1", "Mtb cholesterol medium": 0.07795, "Mtb glucose medium": 8.027}
{"smiles": "COc1cccc(CN(C)CC(C)(C)S(C)(=O)=O)c1", "Mtb cholesterol medium": 25.06, "Mtb glucose medium": 49.21}
{"smiles": "COc1ccc(CN)c(OC)n1", "Mtb cholesterol medium": -0.6908, "Mtb glucose medium": 15.66}
{"smiles": "CN(C)c1ccc(CC(=O)NCCn2cncn2)cc1", "Mtb cholesterol medium": 8.49, "Mtb glucose medium": -2.87}
{"smiles": "CCCN(CCO)Cc1nnc(CC)o1", "Mtb cholesterol medium": -11.37, "Mtb glucose medium": -1.398}
{"smiles": "NS(=O)(=O)c1cnc2ccsc2c1", "Mtb cholesterol medium": 4.804, "Mtb glucose medium": 27.25}
{"smiles": "CN(CC(=O)NC(C)(C)C)C(=O)CCc1ccco1", "Mtb cholesterol medium": 31.1, "Mtb glucose medium": 46.46}
{"smiles": "CCc1nnc(NCCCc2cccnc2)o1", "Mtb cholesterol medium": 5.54, "Mtb glucose medium": 21.99}
{"smiles": "COc1cccc(OC)c1CNC(C)=O", "Mtb cholesterol medium": 11.85, "Mtb glucose medium": 28.62}
{"smiles": "O=C(NCC1(O)CCCNC1)c1ccc(F)cc1Cl", "stereo": "centres undefined", "Mtb cholesterol medium": 24.86, "Mtb glucose medium": 43.2}
{"smiles": "Cc1nn(C)c2nc(NCCSc3ncn[nH]3)sc12", "Mtb cholesterol medium": 38.82, "Mtb glucose medium": 51.77}
{"smiles": "Nc1cnn(CC(=O)NC2CCCC2)c1", "Mtb cholesterol medium": 46.8, "Mtb glucose medium": 22.78}
{"smiles": "Cc1cc(F)ccc1CN1CCOC(CCN)C1", "stereo": "centres undefined", "Mtb cholesterol medium": 17.51, "Mtb glucose medium": 39.34}
{"smiles": "COc1ccc(OCCCN2CCNC(=O)CC2)cc1", "Mtb cholesterol medium": 10.98, "Mtb glucose medium": 17.41}
{"smiles": "CCCSCC(=O)NCc1nc(-c2ccncc2)n[nH]1", "Mtb cholesterol medium": -3.13, "Mtb glucose medium": 8.087}
{"smiles": "COc1ccc(-n2c(CCN)n[nH]c2=O)cc1OC", "Mtb cholesterol medium": 7.742, "Mtb glucose medium": 6.859}
{"smiles": "COc1cc(C(=O)NC(C)CCO)ccc1OC(C)C", "stereo": "centres undefined", "Mtb cholesterol medium": -2.519, "Mtb glucose medium": 8.078}
{"smiles": "Cc1cnccc1CN(C)C(=O)Cc1ccccn1", "Mtb cholesterol medium": -20.05, "Mtb glucose medium": -9.121}
{"smiles": "Cc1noc(C)c1CC(=O)Nc1ccccn1", "Mtb cholesterol medium": -8.473, "Mtb glucose medium": -6.625}
{"smiles": "O=C(CSc1nnc2n1CCCCC2)N1CCCC1", "Mtb cholesterol medium": -3.369, "Mtb glucose medium": 8.076}
{"smiles": "NC(=O)OCCNC(=O)c1occc1Br", "Mtb cholesterol medium": 3.301, "Mtb glucose medium": 1.962}
{"smiles": "COc1cccc(NS(=O)(=O)c2cn(C)c(C)n2)c1", "Mtb cholesterol medium": -21.69, "Mtb glucose medium": -7.842}
{"smiles": "CN1CCC(C)(CN)CC1", "Mtb cholesterol medium": -15.08, "Mtb glucose medium": -12.46}
{"smiles": "CN(C)CCC(=O)c1ccc(F)cc1", "Mtb cholesterol medium": 116.1, "Mtb glucose medium": 107.7}
{"smiles": "N#CCC1(O)CN(S(=O)(=O)C=Cc2ccc(Cl)cc2)C1", "Mtb cholesterol medium": 49.09, "Mtb glucose medium": 61.19}
{"smiles": "Cc1ccc(C2CN(CCOC(=O)N(C)C)CCO2)o1", "stereo": "centres undefined", "Mtb cholesterol medium": -10.93, "Mtb glucose medium": 0.6513}
{"smiles": "CC(C)(N)c1nc(=O)c2c([nH]1)CCC2", "Mtb cholesterol medium": -10.41, "Mtb glucose medium": 0.9383}
{"smiles": "CCc1nnc(CNCC2CCN(CC(C)O)CC2)o1", "stereo": "centres undefined", "Mtb cholesterol medium": -7.54, "Mtb glucose medium": -3.034}

Some entries from above, unchanged:

For O=C(CSc1nnc2n1CCCCC2)N1CCCC1 the result was Mtb cholesterol medium: -3.369%; Mtb glucose medium: 8.076%.
For CCc1ncc2c(n1)CNCC2 the result was Mtb cholesterol medium: -41.55%; Mtb glucose medium: -31.58%.
For CCc1nnc(NCCCc2cccnc2)o1 the result was Mtb cholesterol medium: 5.54%; Mtb glucose medium: 21.99%.

The values are deposited in ChEMBL (CHEMBL3988442, “University of Dundee, Small-Polar-MMV Screening Library” (2021)).